Experimental data published in US20180179524A1, “COMPOSITIONS AND METHODS FOR INHIBITING CELL PROLIFERATION” (President and Fellows of Harvard College, priority 2015, published 2018).
At least one compound was matched to its structure with a doubt left.

Test system: Tsc2−/− MEFs
Assay: Proliferation of Tsc2-/- MEFs relative to Tsc2+/+ MEFs treated with compounds (FIG. 9)
Format: cell-based
Details: 20 nM; FIG. 9 panel E
Method: FIG. 9 is a series of panels, panels A-E showing TSC2 loss confers sensitivity to CCNT1, RNGTT, or CDK11 loss of function. Panel A is a schematic of the methods disclosed herein. […] Panel B represents data corresponding to the CDK9/CDK11 inhibitor JWD07 (5 μM). Panel C represents data corresponding to the CDK2/CDK9/CDK11 inhibitor AT7915 (2 μM). Panel D represents data corresponding to the RNGTT/IMPDH inhibitor Mizoribine (2.5 μM). Panel E represents data corresponding to the mTORC1 inhibitor Rapamycin (20 nM).

For `CO[C@H]1C[C@@H]2CC[C@@H](C)[C@@](O)(O2)C(=O)C(=O)N2CCCC[C@H]2C(=O)O[C@H]([C@H](C)C[C@@H]2CC[C@@H](O)[C@H](OC)C2)CC(=O)[C@H](C)/C=C(\C)[C@@H](O)[C@@H](OC)C(=O)[C@H](C)C[C@H](C)/C=C/C=C/C=C/1C` [Rapamycin], the “proliferation of Tsc2−/− MEFs relative to Tsc2+/+ MEFs” value was “selectively reduce proliferation”.
